Some results were stated once for a whole list of compounds, not compound by compound.
Test: Antioxidant rate constant kinh in chemical tests, relative to α-TOH
Text: Antioxidants, most commonly substituted phenols, effectively intercept peroxyls by transferring the phenolic H-atom to a propagating peroxyl radical, with a rate constant kinh that is faster than that of chain propagation. The most famous example of a phenolic antioxidant is vitamin E (α-toco-pherol, α-TOH) nature's hydrophobic defense against radical chain oxidation.
Compounds of the present invention have a higher kinh and serve as better antioxidants than α-TOH in chemical tests. The critical antioxidant step is shown in Equation 1, the larger the kinh, the better the antioxidant. The simple pyridinol 2a shown below is nearly 5 times better than α-TOH as an antioxidant and the bicyclic compounds 3a and 4a are over 20 times better than the vitamin. […]

## Cc1nc2c(c(C)c1O)CCCN2C [Analog 4a]
  antioxidant potency, times better than α-TOH: over 20 times

From patent publication US9545385B2, “Inhibitors of hemeprotein-catalyzed lipid peroxidation” (VANDERBILT UNIVERSITY, priority 2013, dated 2017)
